PubChem BioAssay AID588590 (National Center for Advancing Translational Sciences (NCATS), 2011)
In all, about 390,000 compounds went through this assay and about 4,000 (1%) were called active. This list was built around the results that the source calls inconclusive (neither active nor inactive); the mix of calls is not that of the screen. The call rests on the fitted dose curve; in most records, active means well fitted inhibition curve with a large enough effect; inconclusive means small, poorly fitted or top-dose-only effect, or another doubt; inactive means no such curve, though single readings can be large or run the other way. A potency beside an inconclusive call is a rough fit, not a confirmed value.
Potency means the concentration at half of the fitted maximal effect.

Chains of the proteins cited; added tags and fusions are not shown. Lines headed by an entry give the natural chain unless they say otherwise; changes in a name come on top.
UniProt Q9UNA4: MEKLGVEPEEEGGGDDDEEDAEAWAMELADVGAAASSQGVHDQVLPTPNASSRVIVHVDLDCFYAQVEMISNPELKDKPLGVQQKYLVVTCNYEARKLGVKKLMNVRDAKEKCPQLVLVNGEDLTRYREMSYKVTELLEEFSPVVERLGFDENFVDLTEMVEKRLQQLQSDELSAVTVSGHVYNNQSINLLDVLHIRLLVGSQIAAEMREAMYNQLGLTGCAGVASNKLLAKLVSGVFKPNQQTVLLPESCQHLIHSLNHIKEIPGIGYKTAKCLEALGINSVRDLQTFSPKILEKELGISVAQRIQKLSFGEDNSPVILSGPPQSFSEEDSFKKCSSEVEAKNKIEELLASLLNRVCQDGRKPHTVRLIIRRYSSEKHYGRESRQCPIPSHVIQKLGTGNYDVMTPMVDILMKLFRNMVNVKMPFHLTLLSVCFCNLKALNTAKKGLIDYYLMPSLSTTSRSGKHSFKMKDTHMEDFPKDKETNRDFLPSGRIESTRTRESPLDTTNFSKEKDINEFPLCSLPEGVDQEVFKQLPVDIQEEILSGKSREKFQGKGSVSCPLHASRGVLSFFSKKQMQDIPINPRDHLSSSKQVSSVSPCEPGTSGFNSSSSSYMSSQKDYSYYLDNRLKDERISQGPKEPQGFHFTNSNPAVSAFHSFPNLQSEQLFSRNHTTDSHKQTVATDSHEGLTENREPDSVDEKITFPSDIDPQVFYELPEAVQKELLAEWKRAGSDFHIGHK

What follows are compounds tested against DNA polymerase iota (Homo sapiens) (UniProt Q9UNA4) (assay: qHTS for Inhibitors of Polymerase Iota). Details: Pol iota fluorescent replication assay, 10 min; series mostly up to 115 µM.
Method in brief: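 Fluorescent replication assay read twice, at 0 min and 10 min after adding 50 nM (final) substrate. Enzyme (10 nM) and compounds were first incubated 15 min at room temperature; enzyme-free buffer wells were negative controls.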
For `O=C(COC(=O)c1n[nH]c(=O)c2ccccc12)Nc1cccc(S(=O)(=O)N2CCOCC2)c1`, the Potency was “inactive”.
For `Cc1noc(/C=C/c2ccco2)c1S(=O)(=O)N1CCC(C(=O)NC(C)c2ccccc2)CC1` (centres undefined), the Potency was inconclusive: 44.7 µM [inhibitor, single point].
For `COc1ccc(CCNC(=S)NC(=O)c2cccc(Cl)c2)cc1OC`, the Potency was inconclusive: 44.7 µM [inhibitor, partial curve, poor fit].
For `C#CCOCCOCCOCCNc1nc(N2CCN(C(=O)Cn3cc(CCCN=C(N)N)nn3)CC2)nc(N2CCN(C(=O)[C@H]([C@@H](C)CC)n3cc(CCC(=O)O)nn3)CC2)n1`, the Potency was active: 89.1 µM.
In the case of `Cc1oc(-c2cccc(Cl)c2)nc1CS(=O)(=O)CC(=O)NC(C)CCc1ccccc1` (centres undefined), the Potency is reported as active: 89.1 µM.
`O=c1oc(-c2ccccc2F)nc2c1cnn2-c1ccccc1` was tested, and the Potency was inconclusive: 15.8 µM [inhibitor, single point].
In the case of `CCOc1ccc(S(=O)(=O)Nc2cc(NS(=O)(=O)c3ccc(OCC)cc3)cc(C(=O)O)c2)cc1`, the Potency is reported as inconclusive: 8.91 µM [inhibitor, full curve, poor fit].
With `COc1cccc(OC)c1OCCNCC1COc2ccccc2O1` (centres undefined) the Potency was inconclusive: 56.2 µM [inhibitor, partial curve, poor fit].
In the case of `O=C1CCCC2=C1C(c1cccs1)Nc1ccc3ncccc3c12` (centres undefined), the Potency is reported as “inactive”.
With `O=S(=O)(c1ccccc1)N1CCSC1c1ccco1` (centres undefined) the Potency was inconclusive: 44.7 µM [inhibitor, partial curve].
In the case of `Cc1cc(N2CCC(C)CC2)nc2ccc(NC(=O)Cc3c(F)cccc3Cl)cc12`, the Potency is reported as inconclusive: 50.1 µM [inhibitor, partial curve, poor fit].
With `N#C/C(=C\c1ccc(O)c([N+](=O)[O-])c1)C(=O)NCc1ccccc1` the Potency was inconclusive: 8.91 µM [inhibitor, full curve].
For `Cc1ccc(Cn2cc(S(=O)(=O)c3cccc(Cl)c3)c(=O)c3cc(F)c(N4CCCCC4)cc32)cc1`, the Potency was “inactive”.
With `C1CCC(NC2=NCCC2)CC1` the Potency was “inactive”.
For `COc1ccc(Cn2c(O)c(C=Nc3ccccc3C(=O)O)c3ccccc3c2=O)cc1`, the Potency was inconclusive: 28.2 µM [inhibitor, partial curve, poor fit].
`Cc1nc2ccccc2nc(=O)c1NNc1ccccc1` was tested, and the Potency was “inactive”.
For `O=C(Nc1cc(C2CC2)nn1-c1ccccc1)c1ccc(F)cc1`, the Potency was “inactive”.
For `NN1C(=O)/C(=C2/Sc3ccccc3N2CCCS(=O)(=O)O)SC1=S`, the Potency was inconclusive: 31.6 µM [inhibitor, single point].
With `CCOC(=O)c1nn(-c2cccc(OC)c2)c2nc(Nc3ccccc3)cc(=O)n12` the Potency was inconclusive: 39.8 µM [inhibitor, single point].
With `O=C(ONc1ccc(N=NC(=O)c2ccccc2O)cc1)c1ccccc1` the Potency was “inactive”.
In the case of `CCOc1ccc(-c2cc(C)n3nc(C(N)=O)cc3n2)cc1`, the Potency is reported as active: 28.2 µM.
For `COc1cccc(C(=O)CC(=O)C(=O)Nc2ccc(C)cc2Cl)c1`, the Potency was inconclusive: 28.2 µM [inhibitor, single point].
With `Cc1cc(Cl)c(S(=O)(=O)Nc2ccc3c(c2)OCO3)cc1OCC(N)=O` the Potency was inconclusive: 39.8 µM [inhibitor, single point].
`Cc1ccc(CN2CCC(=O)N2)cc1` was tested, and the Potency was inconclusive: 11.2 µM [inhibitor, partial curve, poor fit].
`CCCc1cc2c(OC(=O)CC)c(-c3ccc(C(=O)OCC)o3)c(=O)oc2cc1OC` was tested, and the Potency was “inactive”.
With `Cn1c2ccccc2c2nnc(SCC(=O)NCc3ccoc3)nc21` the Potency was inconclusive: 20 µM [inhibitor, partial curve, poor fit].
With `CN(C)CCCN(C(=O)c1ccc(C(=O)c2ccccc2)cc1)c1nc2cc3c(cc2s1)OCCO3` the Potency was inconclusive: 89.1 µM [inhibitor, single point].
`Cc1nn(-c2ccc(N3CCCCC3)nn2)c(C)c1CCC(=O)Nc1ccc(F)cc1F` was tested, and the Potency was “inactive”.
For `O=C(O)CSc1nc2sc3c(c2c(=O)n1-c1ccccc1)CCC3`, the Potency was inconclusive: 25.1 µM [inhibitor, full curve, poor fit].
In the case of `CC(C)CC1Nc2ccc(C(=O)NCCCN3CCOCC3)cc2NC1=O` (centres undefined), the Potency is reported as inconclusive: 89.1 µM [inhibitor, single point].
`CCOC(=O)c1c(C)[nH]c(C)c1S(=O)(=O)NCC(=O)Nc1cccc(C#N)c1` was tested, and the Potency was “inactive”.
`Cc1nc2ccc(S(=O)(=O)NC(C(=O)N3CCn4c3nc3ccccc34)C(C)C)cc2s1` (centres undefined) was tested, and the Potency was “inactive”.
With `O=C1NC(=O)/C(=C/c2ccco2)N1` the Potency was “inactive”.
`CC(C)Oc1cccc(C(=O)C2CCCN(C(=O)c3csnn3)C2)c1` (centres undefined) was tested, and the Potency was inconclusive: 89.1 µM [inhibitor, single point].
`COc1ccc(NC(=O)Cn2nnc(C(=O)NCc3ccc(C)cc3)c2N)cc1OC` was tested, and the Potency was inconclusive: 44.7 µM [inhibitor, partial curve].
`O=C(CSc1ccc([N+](=O)[O-])cn1)Nc1ccccc1N1CCOCC1` was tested, and the Potency was inconclusive: 89.1 µM [inhibitor, single point].
In the case of `CC(CCc1ccco1)NC(=O)Cn1nc(Cc2ccncc2)c2ccccc2c1=O` (centres undefined), the Potency is reported as inconclusive: 3.55 µM [inhibitor, full curve, poor fit].
In the case of `O=C(OCC(=O)N1CCCC1=O)c1cccc([N+](=O)[O-])c1`, the Potency is reported as inconclusive: 79.4 µM [inhibitor, single point].
`O=C(/C=C/c1cccnc1)/C=C/c1cccnc1` was tested, and the Potency was inconclusive: 4.47 µM [inhibitor, full curve, poor fit].
For `Nc1ccc2c(c1)C(O)c1cccc(C(=O)O)c1-2` (centres undefined), the Potency was “inactive”.
`COc1ccc2c(c1)sc1ncc(C(=O)NCc3ccccc3F)c(=O)n12` was tested, and the Potency was “inactive”.
With `CC1(C)N=C(SCc2ccccc2Cl)c2ccccc2N1` the Potency was “inactive”.
In the case of `Cc1ccccc1C(=O)NC(=S)Nc1sc2c(c1C#N)CCC(C)C2` (centres undefined), the Potency is reported as inconclusive: 7.08 µM [inhibitor, single point].
In the case of `Cc1sc(NC(=O)CN2CCN(c3ccccn3)CC2)c(C#N)c1C`, the Potency is reported as inconclusive: 50.1 µM [inhibitor, partial curve, poor fit].
